Measured values reported in patent publication US10471092B2, “Combination of hyaluronic acid and macrogol and pharmaceutical compositions containing it” (APHARM S.r.l., priority 2015, dated 2019).
Some of these results come from one statement about several compounds together.

System: rats
Test: Evaluation of the amount of stool (number of expelled pellets)
Assay type: in vivo
Details: rat
Experimental: Intestinal transit, colon peristalsis and the amount of stool expelled have been evaluated on rats, after the administration of different individual doses of macrogol and sodium hyaluronate and of the combination of the invention.
In Table 3 it is possible to observe an increase in the number of expelled pellets from the rat after the PEG (365-1460 mg/kg p.o. without water and […] p.o. with water) and 20-50 mg/kg hyaluronate treatment in both conditions. […] A greater number of expelled pellets have been induced by the combination of 730 mg/kg p.o. PEG with 30 and 50 mg/kg p.o. sodium hyaluronate+water. […] By administering a dose of 487 mg/kg PEG+50 mg/kg p.o. sodium hyaluronate+water, the number of expelled pellets is equal to that one that can be observed with 730 mg/kg p.o. PEG and 30 mg/kg p.o. sodium hyaluronate. […] The stool expulsion has been monitored for each rat, starting from 1 h after the administration of the preparations (Martinez e Taché, Brain Res. 893: 29-35, 2001).

Row | Substance | expelled pellets in the 60 min observation (20-50 mg/kg hyaluronate, with and without water) | expelled pellets in the 60 min observation (PEG 365-1460 mg/kg p.o. without water and 365-1560 mg/kg p.o. with water)
1 | sodium hyaluronate [IALURONATE] | ≤ 3 | 
2 | polyethylene glycol [PEG] |  | ≤ 3
